Results are given in words; binding and its absence hold for the method and conditions named. Binding seen in cells or lysates may run through a third protein. Binding can be weak; no strength is given. Sequences can lack the tags named with a protein.
Target: T1, V5-SBP-DAP5 MIF4G (DAP5 MIF4G domain alone) (human) (UniProt P78344)
T1 sequence: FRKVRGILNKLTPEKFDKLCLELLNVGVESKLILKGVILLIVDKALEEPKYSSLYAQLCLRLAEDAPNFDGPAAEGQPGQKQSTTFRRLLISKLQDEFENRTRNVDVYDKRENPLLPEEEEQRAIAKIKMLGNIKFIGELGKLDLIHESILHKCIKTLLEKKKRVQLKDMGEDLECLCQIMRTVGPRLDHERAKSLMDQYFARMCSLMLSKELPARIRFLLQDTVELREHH
Assay: pull-down; streptavidin pulldown of V5-SBP-tagged proteins from transfected HEK293T lysates (NET buffer), in the presence of RNase A; immunoblotting

binding: binds
Substance: eIF4A (human (endogenous in HEK293T))

Reference: publication PMC9726905
